Measurements reported in the supplement of paper PMC4604168 (melanoma cell lines).
The list shows a part of the results. Many values rest on one well or one pass, so single values are uncertain.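 Cells were imaged in 1,536-well plates, and nuclei stained with an antibody against cleaved PARP were counted against all DNA-stained nuclei to give the apoptosis fraction. Screening doses were chosen to leave most cells alive, and resting and induced cleaved-PARP levels differ strongly between cell lines.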

Test system: LB2518-MEL
Experiment: cleaved PARP positive nuclei fraction relative to DMSO control; melanoma cells; higher = more apoptosis
Conditions: library dose: low library concentration; 72 h

**Q.** With `O=c1[nH]nc(Sc2ncc([N+](=O)[O-])s2)n1-c1ccc2c(c1)OCCO2` + COc1cc2c(Oc3ccc4[nH]c(C)cc4c3F)ncnc2cc1OCCCN1CCCC1 [cediranib] (first compound 0.2 µM, partner dose 0.4 µM) as the compound, how does the “cleaved PARP positive nuclei fraction” value read?
**A.** 85.5%

**Q.** For `Cc1cc(Nc2cc(N3CCN(C)CC3)nc(Sc3ccc(NC(=O)C4CC4)cc3)n2)n[nH]1` [Tozasertib] + NC(=O)Nc1cc(-c2cccc(F)c2)sc1C(=O)N[C@H]1CCCNC1 [AZD7762] (first compound 0.006 µM, partner dose 0.02 µM), which “cleaved PARP positive nuclei fraction” value is on record?
**A.** 41%

**Q.** Which “cleaved PARP positive nuclei fraction” value does the source give for `Cc1cn(-c2cc(NC(=O)c3ccc(C)c(Nc4nccc(-c5cccnc5)n4)c3)cc(C(F)(F)F)c2)cn1` [nilotinib] + O=C(Nc1cccc(Cl)c1)Nc1ncc(CCNc2ncnc3ccsc23)s1 [SNS314] (first compound 0.2 µM, partner dose 0.0008 µM) here?
**A.** 108%

**Q.** How did the “cleaved PARP positive nuclei fraction” value turn out when `CCCCCCCCCCCCCCCCCCOP(=O)([O-])OC1CC[N+](C)(C)CC1` [Perifosine] + CC(C)(C)c1cnc(CSc2cnc(NC(=O)C3CCNCC3)s2)o1 [SNS-032] (first compound 0.4 µM, partner dose 0.01 µM) was run?
**A.** 97%

**Q.** `O=C(Nc1cc(C(F)(F)F)cc(C(F)(F)F)c1)c1cc(Cl)ccc1O` + NCC(=O)Nc1ccc(-n2nc(C(F)(F)F)cc2-c2ccc3c(ccc4ccccc43)c2)cc1 [OSU03012] (first compound 0.016 µM, partner dose 1 µM) was tested. Which “cleaved PARP positive nuclei fraction” value did it give?
**A.** 104%

**Q.** `CCCCCCCCCCCCCCCCCCOP(=O)([O-])OC1CC[N+](C)(C)CC1` [Perifosine] + O=C(O)c1ccc(-c2c[nH]c3ncc(-c4ccccc4)cc23)cc1C1CCCC1 [GSK650394] (first compound 0.4 µM, partner dose 0.16 µM) was tested. Which “cleaved PARP positive nuclei fraction” value did it give?
**A.** 85.2%

**Q.** For `O=C(Nc1cc(C(F)(F)F)cc(C(F)(F)F)c1)c1cc(Cl)ccc1O` + C[C@@H]1CCN(C(=O)CC#N)C[C@@H]1N(C)c1ncnc2[nH]ccc12 [CP690550] (first compound 0.016 µM, partner dose 1 µM), which “cleaved PARP positive nuclei fraction” value is on record?
**A.** 192%

**Q.** `CC[C@]1(O)C[C@H]2CN(CCc3c([nH]c4ccccc34)[C@@](C(=O)OC)(c3cc4c(cc3OC)N(C=O)[C@H]3[C@@](O)(C(=O)OC)[C@H](OC(C)=O)[C@]5(CC)C=CCN6CC[C@]43[C@@H]65)C2)C1` [vincristine] + CO[C@@H]1[C@H](N(C)C(=O)c2ccccc2)C[C@H]2O[C@]1(C)n1c3ccccc3c3c4c(c5c6ccccc6n2c5c31)C(=O)NC4 [Midostaurin] (first compound 0.0001 µM, partner dose 0.08 µM) was tested. Which “cleaved PARP positive nuclei fraction” value did it give?
**A.** 49.5%

**Q.** How did the “cleaved PARP positive nuclei fraction” value turn out when `COc1cc([C@@H]2c3cc4c(cc3[C@@H](O[C@@H]3O[C@@H]5CO[C@@H](C)O[C@H]5[C@H](O)[C@H]3O)[C@H]3COC(=O)[C@H]23)OCO4)cc(OC)c1O` [etoposide] + OCCn1cc(-c2cnc3nnn(Cc4ccc5ncccc5c4)c3n2)cn1 [PF04217903] (first compound 0.02 µM, partner dose 1 µM) was run?
**A.** 50.2%

**Q.** For `CCCCCCCCCCCCCCCCCCOP(=O)([O-])OC1CC[N+](C)(C)CC1` [Perifosine] + C[C@@H]1CCN(C(=O)CC#N)C[C@@H]1N(C)c1ncnc2[nH]ccc12 [CP690550] (first compound 0.4 µM, partner dose 1 µM), which “cleaved PARP positive nuclei fraction” value is on record?
**A.** 145%

**Q.** Which “cleaved PARP positive nuclei fraction” value does the source give for `O=C(/C=C/c1cccnc1)NCCCCC1CCN(C(=O)c2ccccc2)CC1` + Cc1ccc(NC(=O)c2cccc(N(C)C)c2)cc1NC(=O)c1ccc(O)cc1 [ZM336372] (first compound 0.01 µM, partner dose 2 µM) here?
**A.** 488%

**Q.** Which “cleaved PARP positive nuclei fraction” value does the source give for `Cc1ccc(Nc2nccc(N(C)c3ccc4c(C)n(C)nc4c3)n2)cc1S(N)(=O)=O` [Pazopanib] + COc1cc(Nc2ncc(F)c(Nc3ccc4c(n3)NC(=O)C(C)(C)O4)n2)cc(OC)c1OC [Tamatinib] (first compound 0.4 µM, partner dose 0.4 µM) here?
**A.** 228%

**Q.** Which “cleaved PARP positive nuclei fraction” value does the source give for `N#CC[C@H](C1CCCC1)n1cc(-c2ncnc3[nH]ccc23)cn1` [ruxolitinib] + COc1cc(Nc2ncc(F)c(Nc3ccc4c(n3)NC(=O)C(C)(C)O4)n2)cc(OC)c1OC [Tamatinib] (first compound 1 µM, partner dose 0.4 µM) here?
**A.** 95.8%

**Q.** How did the “cleaved PARP positive nuclei fraction” value turn out when `COc1cc([C@@H]2c3cc4c(cc3[C@@H](O[C@@H]3O[C@@H]5CO[C@@H](C)O[C@H]5[C@H](O)[C@H]3O)[C@H]3COC(=O)[C@H]23)OCO4)cc(OC)c1O` [etoposide] + CN(NC(=O)CC(=O)NN(C)C(=S)c1ccccc1)C(=S)c1ccccc1 [STA4783] (first compound 0.02 µM, partner dose 0.006 µM) was run?
**A.** 221%

**Q.** `O=C(Nc1cc(C(F)(F)F)cc(C(F)(F)F)c1)c1cc(Cl)ccc1O` + O=C(Nc1cccc(Cl)c1)Nc1ncc(CCNc2ncnc3ccsc23)s1 [SNS314] (first compound 0.016 µM, partner dose 0.0008 µM) was tested. Which “cleaved PARP positive nuclei fraction” value did it give?
**A.** 202%

**Q.** For `Cc1cn(-c2cc(NC(=O)c3ccc(C)c(Nc4nccc(-c5cccnc5)n4)c3)cc(C(F)(F)F)c2)cn1` [nilotinib] + NC(=O)Nc1cc(-c2cccc(F)c2)sc1C(=O)N[C@H]1CCCNC1 [AZD7762] (first compound 0.2 µM, partner dose 0.02 µM), which “cleaved PARP positive nuclei fraction” value is on record?
**A.** 129%

**Q.** Which “cleaved PARP positive nuclei fraction” value does the source give for `Cc1cn(-c2cc(NC(=O)c3ccc(C)c(Nc4nccc(-c5cccnc5)n4)c3)cc(C(F)(F)F)c2)cn1` [nilotinib] + O=C(O)c1ccc(-c2c[nH]c3ncc(-c4ccccc4)cc23)cc1C1CCCC1 [GSK650394] (first compound 0.2 µM, partner dose 0.16 µM) here?
**A.** 87.9%

**Q.** Which “cleaved PARP positive nuclei fraction” value does the source give for `O=C(/C=C/c1cccnc1)NCCCCC1CCN(C(=O)c2ccccc2)CC1` + CC(C)(C)c1cnc(CSc2cnc(NC(=O)C3CCNCC3)s2)o1 [SNS-032] (first compound 0.01 µM, partner dose 0.01 µM) here?
**A.** 200%

**Q.** With `Cc1cn(-c2cc(NC(=O)c3ccc(C)c(Nc4nccc(-c5cccnc5)n4)c3)cc(C(F)(F)F)c2)cn1` [nilotinib] + O=C(CCCCCCC(=O)Nc1ccccc1)NO [vorinostat] (first compound 0.2 µM, partner dose 0.08 µM) as the compound, how does the “cleaved PARP positive nuclei fraction” value read?
**A.** 145%

**Q.** For `N#CC[C@H](C1CCCC1)n1cc(-c2ncnc3[nH]ccc23)cn1` [ruxolitinib] + O=C(O)c1ccc(-c2c[nH]c3ncc(-c4ccccc4)cc23)cc1C1CCCC1 [GSK650394] (first compound 1 µM, partner dose 0.16 µM), which “cleaved PARP positive nuclei fraction” value is on record?
**A.** 77.4%

**Q.** For `O=C(Nc1cc(C(F)(F)F)cc(C(F)(F)F)c1)c1cc(Cl)ccc1O` + CO[C@@H]1[C@H](N(C)C(=O)c2ccccc2)C[C@H]2O[C@]1(C)n1c3ccccc3c3c4c(c5c6ccccc6n2c5c31)C(=O)NC4 [Midostaurin] (first compound 0.016 µM, partner dose 0.08 µM), which “cleaved PARP positive nuclei fraction” value is on record?
**A.** 108%

**Q.** With `N#CC[C@H](C1CCCC1)n1cc(-c2ncnc3[nH]ccc23)cn1` [ruxolitinib] + Cc1ccc(NC(=O)c2cccc(N(C)C)c2)cc1NC(=O)c1ccc(O)cc1 [ZM336372] (first compound 1 µM, partner dose 2 µM) as the compound, how does the “cleaved PARP positive nuclei fraction” value read?
**A.** 197%

**Q.** How did the “cleaved PARP positive nuclei fraction” value turn out when `N#CC[C@H](C1CCCC1)n1cc(-c2ncnc3[nH]ccc23)cn1` [ruxolitinib] + CC1(C)NC(=O)N(c2ccc([N+](=O)[O-])c(C(F)(F)F)c2)C1=O [nilutamide] (first compound 1 µM, partner dose 1 µM) was run?
**A.** 123%

**Q.** With `CC[C@]1(O)C[C@H]2CN(CCc3c([nH]c4ccccc34)[C@@](C(=O)OC)(c3cc4c(cc3OC)N(C=O)[C@H]3[C@@](O)(C(=O)OC)[C@H](OC(C)=O)[C@]5(CC)C=CCN6CC[C@]43[C@@H]65)C2)C1` [vincristine] + O=C(Nc1cccc(Cl)c1)Nc1ncc(CCNc2ncnc3ccsc23)s1 [SNS314] (first compound 0.0001 µM, partner dose 0.0008 µM) as the compound, how does the “cleaved PARP positive nuclei fraction” value read?
**A.** 119%

**Q.** For `Cc1cn(-c2cc(NC(=O)c3ccc(C)c(Nc4nccc(-c5cccnc5)n4)c3)cc(C(F)(F)F)c2)cn1` [nilotinib] + CC(C)(C)c1cnc(CSc2cnc(NC(=O)C3CCNCC3)s2)o1 [SNS-032] (first compound 0.2 µM, partner dose 0.01 µM), which “cleaved PARP positive nuclei fraction” value is on record?
**A.** 181%

**Q.** `COc1cc([C@@H]2c3cc4c(cc3[C@@H](O[C@@H]3O[C@@H]5CO[C@@H](C)O[C@H]5[C@H](O)[C@H]3O)[C@H]3COC(=O)[C@H]23)OCO4)cc(OC)c1O` [etoposide] + NC(=O)Nc1cc(-c2cccc(F)c2)sc1C(=O)N[C@H]1CCCNC1 [AZD7762] (first compound 0.02 µM, partner dose 0.02 µM) was tested. Which “cleaved PARP positive nuclei fraction” value did it give?
**A.** 41.6%

**Q.** Which “cleaved PARP positive nuclei fraction” value does the source give for `Cc1cc(Nc2cc(N3CCN(C)CC3)nc(Sc3ccc(NC(=O)C4CC4)cc3)n2)n[nH]1` [Tozasertib] + Cn1cncc1[C@@](N)(c1ccc(Cl)cc1)c1ccc2c(c1)c(-c1cccc(Cl)c1)cc(=O)n2C [tipifarnib] (first compound 0.006 µM, partner dose 0.01 µM) here?
**A.** 105%

**Q.** `Cc1ccc(Nc2nccc(N(C)c3ccc4c(C)n(C)nc4c3)n2)cc1S(N)(=O)=O` [Pazopanib] + Cn1cncc1[C@@](N)(c1ccc(Cl)cc1)c1ccc2c(c1)c(-c1cccc(Cl)c1)cc(=O)n2C [tipifarnib] (first compound 0.4 µM, partner dose 0.01 µM) was tested. Which “cleaved PARP positive nuclei fraction” value did it give?
**A.** 76.9%
